Tested on: p16-3MR mice fed a high fat diet
Experiment: Glucose tolerance and insulin sensitivity in p16-3MR mice fed a high fat diet
Assay type: in vivo, mouse
Method: Groups of p16-3MR mice (n=9) were fed a high fat diet for four months mice or a regular chow diet. Animals were then treated with ganciclovir (3 rounds of 25 mg/kg ganciclovir administered daily for five consecutive days) or vehicle. A glucose bolus was given at time zero, and blood glucose was monitored at 20, 30, 60, and 120 minutes after delivering glucose to determine glucose disposal (see FIG. 69A). […] Insulin sensitivity was also determined (Insulin Tolerance Testing (ITT)). […] Changes in weight, body composition, and food intake were also monitored.

Nc1nc(O)c2ncn(COC(CO)CO)c2n1 [ganciclovir]
Body composition (percent of fat) (p16-3MR mice, high fat diet): did not alter
Body weight (p16-3MR mice, high fat diet): did not alter
Food intake (grams per week) (p16-3MR mice, high fat diet): did not alter
Change in insulin tolerance testing (wild-type mice): not observed
